# Test results from PubChem BioAssay AID504444 (National Center for Advancing Translational Sciences (NCATS), 2011).
# Among all 360,000 compounds or so, about 7,500 (2.1%) were called active. The inconclusive results got no clear call from the source; some entries with a clear call stand among them for comparison. Calls come from the whole dose curve; as a rule, active = well fitted inhibition curve with a large enough effect; inconclusive = small, poorly fitted or top-dose-only effect, or effect the other way; inactive = flat fitted curve, though single readings scatter. Where the call is inconclusive, the potency comes from a doubtful curve fit.
# Experiment: Nrf2 qHTS screen for inhibitors; note: nearly all actives have a fitted effect of over 60% in size
# Conditions: A549 ARE-Fluc reporter, luciferase luminescence, 18-24 h; activity change, negative = inhibition: at 46 µM (top of the series)
# Summary of the method: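 Quantitative HTS in A549 cells stably bearing an antioxidant response element-firefly luciferase construct. Inhibition of Nrf2-driven transcription was scored by luminescence after 18-24 h of compound exposure at 37 °C.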
# % is set by controls: 0 for no effect and ±100 for the full control effect; potency is the fitted concentration of half-maximal effect.
SMILES,Potency,"activity change, negative = inhibition"
COc1cccc(C(=O)Nc2cccc(-c3nc4ncccc4o3)c2C)c1,"inconclusive: 16.4 µM [falling, partial curve]",
CSCCC(NS(=O)(=O)c1ccc(F)cc1)C(=O)NCc1ccc(S(N)(=O)=O)cc1 (centres undefined),"inconclusive: 23.1 µM [falling, single point]",
CC(C)c1ccc(S(=O)(=O)N2CCN(C(=O)c3cccc(S(=O)(=O)N4CCOCC4)c3)CC2)cc1,"inconclusive: 29.1 µM [falling, single point]",
Cc1nc2cc(NC(=O)COc3ccc(C#N)cc3)ccc2n1-c1ccccc1,"inconclusive: 0.0461 µM [falling, full curve]",
COc1ccc(/C=C/C(=O)c2ccc3ccccc3c2O)cc1CN1CCOCC1,,inactive: -15.3%
Cc1nonc1C(=O)N/N=C/c1ccccc1,"inconclusive: 18.4 µM [activator, partial curve, poor fit]",
Cc1noc(C)c1-c1ccc2ncnc(NCc3cccc(C(F)(F)F)c3)c2c1,"inconclusive: 10.3 µM [falling, partial curve, poor fit]",
Cc1cccc(NC(NC(=O)c2cccnc2)C(Cl)(Cl)Cl)c1 (centres undefined),"inconclusive: 18.4 µM [falling, partial curve, poor fit]",
O=C(N/N=C/c1sc(N2CCCCC2)nc1-c1cccs1)c1cccnc1,"inconclusive: 29.1 µM [falling, single point]",
CC(C)NC(=O)C1CCN(C(=O)c2cc3sccc3n2Cc2ccc(Cl)cc2)CC1,active: 5.8 µM,
COc1ccc(CCNC2=C(Cl)C(=O)N(CCc3ccc(OC)c(OC)c3)C2=O)cc1OC,"inconclusive: 5.17 µM [falling, single point]",
S=C(NCc1cccnc1)Nc1ccc(Cl)cc1,"inconclusive: 20.6 µM [falling, partial curve]",
CC(=O)N1C[C@H](O)C[C@H]1C(=O)O,,inactive: -9.24%
O=C1Nc2ccc([N+](=O)[O-])cc2OC1CCN1CCOCC1 (centres undefined),"inconclusive: 29.1 µM [falling, single point]",
CC(O)CNc1nc2c(c(=O)n(Cc3cccc(Cl)c3)c(=O)n2C)n1C (centres undefined),"inconclusive: 20.6 µM [falling, single point]",
CC(C)N(C(=O)[C@H]1C[C@H](CC(=O)NCC23CC4CC(CC(C4)C2)C3)C(=O)N2CCc3c([nH]c4cc(CCC(=O)N(C)C)ccc34)[C@]12C)C(C)C,active: 20.6 µM,
COc1cccc(Cn2cccc(NC(=O)Nc3ccccc3C)c2=O)c1,"inconclusive: 18.4 µM [falling, single point]",
COc1ccccc1N1CCN(S(=O)(=O)c2ccc3nc(-c4ccccc4)[nH]c3c2)CC1,active: 23.1 µM,
COc1ccc(C)cc1NC(=O)COC(=O)c1ccccc1SCC(=O)N1CCCC1,,inactive: 2.26%
Cc1sc(NC(=O)CN2CCOCC2)nc1-c1ccc2c(c1)CCN2S(=O)(=O)c1ccccc1,active: 2.59 µM,
Cn1c(=O)c2c(c3ccccc31)OC(=O)CC2c1cccc(F)c1 (centres undefined),,inactive: 26.4%
CCn1ncc(/C=C/C(=O)c2ccccc2)c1C,"inconclusive: 0.326 µM [activator, full curve, poor fit]",
O=C(Nc1ccc(Cl)cc1)N1CCN(c2ccc3nnc(-c4ccccc4)n3n2)CC1,active: 25.9 µM,

SMILES,Potency,"activity change, negative = inhibition"
O=C(Nc1cccc(Br)c1)c1ccc(Cl)c(S(=O)(=O)N2CCOCC2)c1,active: 10.3 µM,
Cc1ccsc1C(=O)OCC(=O)N1CCN(C(=O)c2ccco2)CC1,,inactive: 12.1%
S=C(NCc1ccccc1)Nc1ccncc1,"inconclusive: 8.2 µM [falling, partial curve, poor fit]",
COc1cc(/C=C/c2[nH]c(=O)[nH]c(=O)c2[N+](=O)[O-])cc([N+](=O)[O-])c1O,,inactive: 3.16%
Cc1ccccc1CCNC(=O)c1ccc(Cl)c(S(=O)(=O)N2CC(C)OC(C)C2)c1 (centres undefined),active: 5.17 µM,
Cc1ccc(-c2nnc3sc(CCc4ccccc4)nn23)cc1,"inconclusive: 25.9 µM [activator, single point]",
O=c1[nH]c(SCc2cccc(F)c2)nc2ccccc12,"inconclusive: 1.03 µM [falling, full curve]",
O=C(C1CCC(Cn2c(=O)c3sccc3n(Cc3ccccc3F)c2=O)CC1)N1CCCCC1 (centres undefined),"inconclusive: 0.146 µM [falling, full curve, poor fit]",
CCOc1ccc(N(C)Cc2cc(=O)oc3ccc(OC)cc23)cc1,"inconclusive: 18.4 µM [falling, single point]",
CCN(CC(=O)Nc1ccc2c(c1)OCCO2)CC(=O)Nc1ccccc1C(F)(F)F,,inactive: -8.26%
COc1ccc(NC(=O)/C=C/c2ccccc2)cn1,"inconclusive: 0.366 µM [activator, full curve, poor fit]",
Cc1ccc(CNCc2c(C(=O)O)n(Cc3ccc(C)cc3)c3cc(C)ccc23)cc1,"inconclusive: 25.9 µM [falling, single point]",
C=CCSc1nn2c(=O)c3ccccc3nc2s1,"inconclusive: 0.731 µM [activator, full curve]",
CCCCNC(=O)CN1CCN(Cc2ccc3cc(OC)ccc3c2)CC1,"inconclusive: 13 µM [falling, partial curve, poor fit]",
Cc1noc(C(=O)N2CC3(C)CC2CC(C)(C)C3)c1Cl (centres undefined),"inconclusive: 32.6 µM [falling, partial curve, poor fit]",
O=c1c2[nH]c3cc(Br)sc3c2cnn1Cc1ccccc1F,,inactive: -11.2%
COc1ccccc1C(c1nnnn1Cc1ccco1)N1CCN(c2cccc(C)c2C)CC1 (centres undefined),active: 11.6 µM,
COc1ccc(C(=O)CSc2nnc(-c3cc(C)cc(C)c3)o2)cc1,"inconclusive: 32.6 µM [falling, single point]",
Cc1cc(C)cc(NC(=O)CSc2nnc(-c3cc4occc4n3C)n2-c2ccccc2C)c1,,inactive: 25.8%
CC(=O)Nc1ccc(OCc2cccc3ccccc23)cc1,"inconclusive: 29.1 µM [falling, single point]",
CCCCn1c(N)c(C(=S)NC(=O)CC(C)(C)C)c(=O)n(C)c1=O,"inconclusive: 32.6 µM [falling, single point]",
Cc1ccc(Cl)cc1N1CCN(C(=O)c2ccccc2SCC(=O)N2CCCC2)CC1,"inconclusive: 16.4 µM [falling, single point]",
CC(=O)Nc1ccc(S(=O)(=O)Nc2nc3ccccc3nc2Nc2cccc(O)c2)cc1,,inactive: 8.98%

# A draw from above in order of count of non-hydrogen atoms, ascending:
SMILES,Potency,"activity change, negative = inhibition"
C=CCSc1nn2c(=O)c3ccccc3nc2s1,"inconclusive: 0.731 µM [activator, full curve]",
O=C(Nc1cccc(Br)c1)c1ccc(Cl)c(S(=O)(=O)N2CCOCC2)c1,active: 10.3 µM,
CC(=O)Nc1ccc(S(=O)(=O)Nc2nc3ccccc3nc2Nc2cccc(O)c2)cc1,,inactive: 8.98%

# Continuation:

SMILES,Potency,"activity change, negative = inhibition"
CCc1ccc(-c2cc(C(=O)N3N=C(C(F)F)CC3(O)C(F)F)c3ccccc3n2)cc1 (centres undefined),active: 20.6 µM,
Cc1ccc(S(=O)(=O)N(C)C)cc1NC(=S)NC(C)CCCC(C)C (centres undefined),"inconclusive: 29.1 µM [falling, single point]",
Cc1ccc(NC(=O)c2ccccc2-c2cc(C)no2)cc1,,inactive: 11.7%
CC(=O)Cc1nsc(NC(=O)c2ccc(COc3ccccc3C)o2)n1,"inconclusive: 11.6 µM [falling, partial curve, poor fit]",
COc1ccc(-c2cc3ncc(-c4ccccc4)c(N)n3n2)cc1,"inconclusive: 10.3 µM [activator, partial curve]",
CC(=O)Nc1ccc(Nc2cc(C)c3ccccc3n2)cc1,"inconclusive: 2.06 µM [activator, full curve]",
CCN(CC)CCSc1nnc2c3cc(F)ccc3n(C)c2n1,"inconclusive: 3.66 µM [falling, full curve]",
c1csc(-c2nnc(COc3ncnc4sccc34)o2)c1,"inconclusive: 29.1 µM [activator, single point]",
COc1ccccc1CNC(=O)CN(CCc1ccccc1)S(C)(=O)=O,,inactive: 14.3%
Cc1cc(NC(=O)c2cc3cccc([N+](=O)[O-])c3[nH]2)ccc1F,"inconclusive: 1.84 µM [activator, partial curve]",
CC(C)C(=O)N=C1NC(=O)CS1,"inconclusive: 29.1 µM [activator, partial curve, poor fit]",
C/C(=N\Nc1nc(C(C)(C)C)cs1)c1ccc(O)cc1,"inconclusive: 29.1 µM [activator, single point]",
Cc1ccc(CN(Cc2ccco2)C(=O)COc2ccc(Cl)cc2)o1,"inconclusive: 20.6 µM [falling, partial curve, poor fit]",
Cc1cccnc1NC(=O)Nc1cccc(Cl)c1,"inconclusive: 2.59 µM [activator, partial curve, poor fit]",
COC(=O)c1c(NC(=O)CC2Nc3cc(C)c(C)cc3NC2=O)sc(C)c1C (centres undefined),,inactive: 8.48%
COC(=O)c1sc(-c2ccc(Cl)cc2)cc1NC(=O)c1ccccc1C(=O)O,"inconclusive: 13 µM [falling, partial curve, poor fit]",
COc1ccc(N2C(=O)CC(Sc3n[nH]c(-c4cccc(C)c4)n3)C2=O)cc1 (centres undefined),,inactive: 23.7%
CCOc1ccc(-c2cc(-c3nc(-c4cc(OC)c(OC)c(OC)c4)no3)[nH]n2)cc1,"inconclusive: 32.6 µM [activator, single point]",
CCN(CC)S(=O)(=O)c1cc(C(=O)Nc2cc(C)[nH]n2)ccc1Cl,"inconclusive: 5.8 µM [activator, partial curve, poor fit]",
N/C(=N\OC(=O)c1ccc(F)cc1)c1nonc1N,,inactive: 13.3%
COc1ccc(CCNC(=O)c2cnc3sc(N4CCCC4)nn3c2=O)cc1OC,,inactive: -19.7%
CN(C(=O)c1cc2c(s1)-c1ccc(Cl)cc1SC2)c1cccc(C(F)(F)F)c1,"inconclusive: 5.8 µM [falling, partial curve, poor fit]",
O=C(CN1C(=O)COc2ccc(S(=O)(=O)N3CCCCC3)cc21)NCc1ccc(Cl)cc1,"inconclusive: 29.1 µM [falling, single point]",
